Reference: the supplement of paper PMC8166895
Counter-ions that a name gives are not always drawn. Some of the results follow. Most entries show no effect beyond the scatter of the controls.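 Melting temperature was read by differential scanning fluorimetry in a single-replicate pilot screen of a library of approved drugs and clinical or known-target compounds. Compounds raising the melting point by at least 2 °C were the top stabilizing hits, and negative shifts mean destabilization.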

The compounds below were run on SARS-CoV-2 main protease (Mpro, nsp5) (assay: thermal shift ΔTm of Mpro relative to plate average Tm; higher = stronger thermal stabilization of Mpro (binding)). Conditions: 10 µM; protein concentration 1 µM.

Row | Structure (SMILES) | thermal shift ΔTm of Mpro [°C]
1 | CNc1ncnc2c1ncn2[C@@H]1O[C@H](CO)[C@@H](O)[C@H]1O [N6-methyladenosine (m6A)] | 0.0147
2 | Cc1ncc([N+](=O)[O-])n1C [Dimetridazole] | 0.0281
3 | CC(C)OC(=O)C(C(=O)OC(C)C)=C1SC=CS1 [Malotilate] | -0.0375
4 | C[C@@H](O)[C@H]1C(=O)N2C(C(=O)O)=C(SCCNC=N)C[C@H]12 [Imipenem] | 0.0316
5 | c1ccc2c(c1)CCCC2C1=NCCN1 (stereo unspecified) [Tetrahydrozoline HCl] | -0.0247
6 | c1ccc2c(c1)CCCC2C1=NCCN1 (stereo unspecified) [Tetryzoline] | -0.206
7 | CCOc1cc(N2CCC(O)CC2)ccc1Nc1ncc2c(n1)N(C1CCCC1)CCC(=O)N2C | 0.104
8 | OC[C@@H](O)[C@@H](O)[C@H](O)[C@H](O)CO [D-Mannitol] | 0.0318
9 | O=C1Nc2ccc(Cl)cc2/C1=C/c1cc(Br)c(O)c(Br)c1 | 0.265
10 | CN1C(=O)COc2c(C(=O)NC3CN4CCC3CC4)cc(Cl)cc21 (stereo unspecified) [Azasetron hydrochloride] | 0.168
11 | CCn1cc(C(=O)O)c(=O)c2cc(F)c(N3CCNCC3)nc21 [Enoxacin Sesquihydrate] | 0.0701
12 | CCn1cc(C(=O)O)c(=O)c2cc(F)c(N3CCNCC3)nc21 [Enoxacin] | 0.0663
13 | CC(=O)OCC(=O)NCCCOc1cccc(CN2CCCCC2)c1 [Roxatidine Acetate HCl] | 0.0133
14 | CCCCCCCCC(=O)N[C@H](CN1CCCC1)[C@H](O)c1ccc2c(c1)OCCO2 | 0.0372
15 | C[C@H](NCc1ccc(OCc2cccc(F)c2)cc1)C(N)=O [Safinamide Mesylate] | 0.346
16 | O=C(Oc1ccc([N+](=O)[O-])cc1)N1CCC(C(O)(c2ccc3c(c2)OCO3)c2ccc3c(c2)OCO3)CC1 | -0.0641
17 | O=C(OCC1=C[C@@H](O)[C@@H]2C=CO[C@@H](O[C@@H]3O[C@H](CO)[C@@H](O)[C@H](O)[C@H]3O)[C@H]12)c1ccc(O)cc1 [Agnuside] | 0.107
18 | CONC(=O)c1ccccc1Nc1cc(Nc2cc(C)nn2C(C)C)ncc1Cl | 0.143
19 | O=C(COc1c(Cl)cc(Cl)cc1Cl)N/N=C/c1ccc[nH]1 | 0.184
20 | O=C1NC(=O)C(c2ccccc2[N+](=O)[O-])=C1Nc1ccc(O)c(Cl)c1 | -0.379
21 | CO/N=C(\C(=O)N[C@@H]1C(=O)N2C(C(=O)O)=CCS[C@H]12)c1csc(N)n1 [Ceftizoxime] | -0.0823
22 | N#CSCSc1nc2ccccc2s1 [Benthiazole] | -1.25
23 | OC[C@H]1OC(O)[C@H](O)[C@@H](O)[C@@H]1O (stereo partly specified) [Dextrose] | 0.19
24 | CCCc1ncc(C[n+]2ccccc2C)c(N)n1 [Amprolium HCl] | -0.0231
25 | O=C1NC(=O)/C(=C/c2ccc3nccc(-c4ccncc4)c3c2)S1 | 0.394
26 | C/C(=C1/C(=O)Nc2ccc(NC(N)=O)cc21)c1ccc[nH]1 | -0.0769

22 entries from above, reformatted:

| Row | Structure (SMILES) | thermal shift ΔTm of Mpro [°C] |
| --- | --- | --- |
| 1 | CNc1ncnc2c1ncn2[C@@H]1O[C@H](CO)[C@@H](O)[C@H]1O [N6-methyladenosine (m6A)] | 0.0147 |
| 2 | Cc1ncc([N+](=O)[O-])n1C [Dimetridazole] | 0.0281 |
| 3 | CC(C)OC(=O)C(C(=O)OC(C)C)=C1SC=CS1 [Malotilate] | -0.0375 |
| 4 | C[C@@H](O)[C@H]1C(=O)N2C(C(=O)O)=C(SCCNC=N)C[C@H]12 [Imipenem] | 0.0316 |
| 5 | c1ccc2c(c1)CCCC2C1=NCCN1 (stereo unspecified) [Tetrahydrozoline HCl] | -0.0247 |
| 7 | CCOc1cc(N2CCC(O)CC2)ccc1Nc1ncc2c(n1)N(C1CCCC1)CCC(=O)N2C | 0.104 |
| 8 | OC[C@@H](O)[C@@H](O)[C@H](O)[C@H](O)CO [D-Mannitol] | 0.0318 |
| 9 | O=C1Nc2ccc(Cl)cc2/C1=C/c1cc(Br)c(O)c(Br)c1 | 0.265 |
| 10 | CN1C(=O)COc2c(C(=O)NC3CN4CCC3CC4)cc(Cl)cc21 (stereo unspecified) [Azasetron hydrochloride] | 0.168 |
| 11 | CCn1cc(C(=O)O)c(=O)c2cc(F)c(N3CCNCC3)nc21 [Enoxacin Sesquihydrate] | 0.0701 |
| 12 | CCn1cc(C(=O)O)c(=O)c2cc(F)c(N3CCNCC3)nc21 [Enoxacin] | 0.0663 |
| 13 | CC(=O)OCC(=O)NCCCOc1cccc(CN2CCCCC2)c1 [Roxatidine Acetate HCl] | 0.0133 |
| 14 | CCCCCCCCC(=O)N[C@H](CN1CCCC1)[C@H](O)c1ccc2c(c1)OCCO2 | 0.0372 |
| 17 | O=C(OCC1=C[C@@H](O)[C@@H]2C=CO[C@@H](O[C@@H]3O[C@H](CO)[C@@H](O)[C@H](O)[C@H]3O)[C@H]12)c1ccc(O)cc1 [Agnuside] | 0.107 |
| 18 | CONC(=O)c1ccccc1Nc1cc(Nc2cc(C)nn2C(C)C)ncc1Cl | 0.143 |
| 19 | O=C(COc1c(Cl)cc(Cl)cc1Cl)N/N=C/c1ccc[nH]1 | 0.184 |
| 20 | O=C1NC(=O)C(c2ccccc2[N+](=O)[O-])=C1Nc1ccc(O)c(Cl)c1 | -0.379 |
| 21 | CO/N=C(\C(=O)N[C@@H]1C(=O)N2C(C(=O)O)=CCS[C@H]12)c1csc(N)n1 [Ceftizoxime] | -0.0823 |
| 23 | OC[C@H]1OC(O)[C@H](O)[C@@H](O)[C@@H]1O (stereo partly specified) [Dextrose] | 0.19 |
| 24 | CCCc1ncc(C[n+]2ccccc2C)c(N)n1 [Amprolium HCl] | -0.0231 |
| 25 | O=C1NC(=O)/C(=C/c2ccc3nccc(-c4ccncc4)c3c2)S1 | 0.394 |
| 26 | C/C(=C1/C(=O)Nc2ccc(NC(N)=O)cc21)c1ccc[nH]1 | -0.0769 |

Continued.

Row | Structure (SMILES) | thermal shift ΔTm of Mpro [°C]
27 | N#C/C(=C\c1ccc(O)c(O)c1)C(=O)Nc1ccccc1 | -0.345
28 | CC(C(=O)O)c1cccc(Oc2ccccc2)c1 (stereo unspecified) [Fenoprofen calcium hydrate] | -0.108
29 | CC(C(=O)O)c1cccc(Oc2ccccc2)c1 (stereo unspecified) [Fenoprofen calcium dihydrate] | 0.0531
30 | CC(C(=O)O)c1cccc(Oc2ccccc2)c1 (stereo unspecified) [Fenoprofen Calcium] | 0.0378
31 | O=C1OC(c2ccc(O)cc2)(c2ccc(O)cc2)c2ccccc21 [Phenolphthalein] | -0.07
32 | COCCOc1nc(-c2ccc(Cl)c(Cl)c2)n(-c2ccc(NC(=O)CCl)cc2)n1 [MI-2 (MALT1 inhibitor)] | -0.0947
33 | CNC[C@@H](O)c1ccc(O)c(O)c1 [L-Adrenaline] | -0.111
34 | Cc1ccc(N(CC2=NCCN2)c2cccc(O)c2)cc1 [Phentolamine Mesylate] | 0.13
35 | CC(C)Nc1cc(-c2c[nH]c(C(=O)N[C@H](CO)c3cccc(Cl)c3)c2)c(Cl)cn1 | 0.189
36 | CCc1ccc(CCOc2ccc(CC3SC(=O)NC3=O)cc2)nc1 (stereo unspecified) [Pioglitazone HCl] | 0.0188
37 | CCc1ccc(CCOc2ccc(CC3SC(=O)NC3=O)cc2)nc1 (stereo unspecified) [Pioglitazone] | -0.0492
38 | CCCSc1ccc2[nH]c(NC(=O)OC)nc2c1 [Albendazole] | 0.0585
39 | Cc1c(Cl)cccc1Nc1ccccc1C(=O)O [Tolfenamic Acid] | 0.136
40 | c1ccc(-c2nc(-c3ccc(-c4nc(-c5ccccc5)c(-c5ccccc5)[nH]4)cc3)[nH]c2-c2ccccc2)cc1 | 0.151
41 | CO[C@H]1/C=C/O[C@@]2(C)Oc3c(C)c(O)c4c(O)c(c(/C=N/N5CCN(C)CC5)c(O)c4c3C2=O)NC(=O)/C(C)=C\C=C\[C@H](C)[C@H](O)[C@@H](C)[C@@H](O)[C@@H](C)[C@H](OC(C)=O)[C@@H]1C [Rifampin] | 0.00997
42 | COc1cc(F)c(C(C)C)cc1-c1ccc(C(F)(F)F)cc1CN1C(=O)O[C@H](c2cc(C(F)(F)F)cc(C(F)(F)F)c2)[C@@H]1C [Anacetrapib (MK-0859)] | -0.0129
43 | O=C(O)CCc1c(C(=O)O)[nH]c2cc(Cl)cc(Cl)c12 | 0.171
44 | CC[C@H]1OC(=O)[C@H](C)[C@@H](O[C@H]2C[C@@](C)(OC)[C@@H](O)[C@H](C)O2)[C@H](C)[C@@H](O[C@@H]2O[C@H](C)C[C@H](N(C)C)[C@H]2O)[C@](C)(O)C[C@@H](C)C(=O)[C@H](C)[C@@H](O)[C@]1(C)O [Erythromycin] | 0.0354
45 | CC(C)(C)[C@]1(O)CC2OC(=O)CC23C(=O)OC2OC(=O)[C@H](O)C231 (stereo partly specified) [Bilobalide] | -0.0454
46 | CC(C)(Oc1ccc(CCNC(=O)c2ccc(Cl)cc2)cc1)C(=O)O [Bezafibrate] | -0.0145
47 | OCCN1CCN(CCCN2c3ccccc3Sc3ccc(C(F)(F)F)cc32)CC1 [Fluphenazine hydrochloride] | 0.105
48 | c1ccc(CC2=NCCN2)cc1 [Tolazoline HCl] | -0.121
49 | Cc1cnc2c(C(=O)NCCO)cn(Cc3ncnc(N(C)C)c3C)c2c1 | -0.0814
50 | O=C1c2ccccc2C(=O)C1c1ccccc1 [Phenindione] | 0.0766
51 | O=C(O)CCCc1c[nH]c2ccccc12 [3-Indolebutyric acid (IBA)] | -0.0502
52 | O=C(c1cc(Cc2n[nH]c(=O)c3ccccc23)ccc1F)N1CCN(C(=O)C2CC2)CC1 | 0.0562

Row | Structure (SMILES) | thermal shift ΔTm of Mpro [°C]
53 | Cc1cc(SCc2sc(-c3ccc(C(F)(F)F)c(F)c3)nc2C)ccc1OCC(=O)O | -0.359
54 | CNc1nc(-c2ccc3c(N)n[nH]c3c2)cc(N2C[C@@H](C(=O)NC3CCCCC3)CC[C@H]2C)n1 | -0.2
55 | COc1ccc(-c2coc3cc(O)ccc3c2=O)cc1 [Formononetin] | 0.363
56 | CN1CCN(S(=O)(=O)c2ccc(-c3cnc(N)c(C(=O)Nc4cccnc4)n3)cc2)CC1 | 0.0296
57 | Nc1ccc2ncnc(NCCc3ccc(Oc4ccccc4)cc3)c2c1 | -0.0957
58 | Oc1c(Br)cc(Br)c2cccnc12 [Broxyquinoline] | 0.0141
59 | COc1cc2c(cc1OC)[C@@H](Cc1ccc(O)c(Oc3cc4c(cc3OC)CCN(C)[C@@H]4Cc3ccc(O)cc3)c1)N(C)CC2.[O-][Cl+3]([O-])([O-])O [Liensinine Perchlorate] | -0.168
60 | O=C(OCCN1CCOCC1)C1(c2ccccc2)CCCCC1 [PRE-084 hydrochloride] | -0.0283
61 | Cc1ccc2c(c1)C(=O)C1(O)CCN(c3ccccc3)C1=N2 (single isomer, unassigned; (-)) [(-)-Blebbistatin] | -0.0107
62 | CC(CN1CC(=O)N(CN2CCOCC2)C(=O)C1)N1CC(=O)N(CN2CCOCC2)C(=O)C1 (stereo unspecified) [Probimane] | 0.314
63 | CNC(=O)c1cc(Oc2ccc(NC(=O)c3cccc(C(F)(F)F)c3)cc2)ccn1 | 0.0547
64 | CS(=O)(=O)c1ccc(C(=O)Nc2ccc(Cl)c(-c3ccccn3)c2)c(Cl)c1 [Vismodegib (GDC-0449)] | 0.0369
65 | O=C1C(c2c(O)[nH]c3ccccc23)=Nc2ccccc21 [Indirubin] | -0.043
66 | COc1ccc(C(=O)CCC(=O)O)c2ccccc12 [Menbutone] | 0.472
67 | CC1(C)CCC(c2ccc(Cl)cc2)=C(CN2CCN(c3ccc(C(=O)NS(=O)(=O)c4ccc(N[C@H](CCN5CCOCC5)CSc5ccccc5)c(S(=O)(=O)C(F)(F)F)c4)cc3)CC2)C1 [ABT-263 (Navitoclax)] | 0.711
68 | O=C(COc1ccc(C(=O)c2ccccc2)cc1)NC1CCN(Cc2ccccc2)CC1 [AdipoRon] | -0.26
69 | CNC[C@H](O)[C@@H](O)[C@H](O)[C@H](O)CO.CNC[C@H](O)[C@@H](O)[C@H](O)[C@H](O)CO.O=C([O-])CN(CCN(CC(=O)[O-])CC(=O)O)CCN(CC(=O)[O-])CC(=O)O.[Gd+3] [Gadopentetate dimeglumine] | -0.0725
70 | Clc1ccccc1C(c1ccccc1)(c1ccccc1)n1cccn1 | -0.0902
71 | O=C(N[C@H]1CN2CCC1CC2)c1cc2cccc(Cl)c2s1 [EVP-6124 hydrochloride] | -0.159
72 | O=C(O[C@H]1[C@H](OC(=O)c2cccnc2)[C@@H](OC(=O)c2cccnc2)[C@H](OC(=O)c2cccnc2)[C@@H](OC(=O)c2cccnc2)[C@H]1OC(=O)c1cccnc1)c1cccnc1 [Inositol nicotinate] | 0.0921
73 | O=C(O[C@H]1C[N+]2(CCCOc3ccccc3)CCC1CC2)C(O)(c1cccs1)c1cccs1 [Aclidinium Bromide] | -0.0272
74 | COc1cc(O)c2c(=O)cc(-c3ccc(OC)c(-c4c(O)cc(O)c5c(=O)cc(-c6ccc(O)cc6)oc45)c3)oc2c1 [Ginkgetin] | 0.17
75 | O=C(NOCC1CC1)c1ccc(F)c(F)c1Nc1ccc(I)cc1Cl | 0.153
76 | Nc1nc(F)nc2c1ncn2[C@@H]1O[C@H](COP(=O)(O)O)[C@@H](O)[C@@H]1O [Fludarabine Phosphate] | -0.0153
